Source: patent publication US20250270283A1
These are yes or no findings as the source states them, for the method shown. Some entries that bind do so weakly or less than the wild type.

How the values were obtained:
[1] = molecular target: KIR2DL2 (killer-cell immunoglobulin-like receptor), soluble recombinant; assay: SPR, His-tagged KIR immobilised on Ni-NTA chip, HLA protein as analyte, 25 °C
[2] = molecular target: KIR2DL2 (killer-cell immunoglobulin-like receptor), soluble recombinant; assay: SPR, His-tagged KIR2DL2 immobilised on a Ni-NTA chip, WTC1 flowed over as analyte, 25 C
[3] = molecular target: KIR2DL2 (killer-cell immunoglobulin-like receptor), soluble recombinant; assay: SPR, His-tagged KIR immobilised on Ni-NTA chip, HLA protein as analyte, 25 °C; relative response (FIG. 24); WTC1 is the reference with the higher response

Substance | binding [1] | binding [2] | binding [3]
SYNC44-L2 (from UniProt P10321 26-301) (peptide-MHC) | binds | – | –
WTC1 (RL9/HLA-C*07:02/B2M) (from UniProt P10321 25-302; P61769 21-119) (peptide-MHC) | – | binds | binds
